# Results from the supplement of paper PMC10338343.
# ± gives the standard deviation. The list shows a part of the results. Many entries were measured with a wide error.
# Test system: EfPiwi piRISC loaded with L1MC piRNA (26 nt)
# Experiment: pre-steady-state target cleavage rate (min^-1); guide: L1MC piRNA 5'p-UAACUAAAUACUAUGCAAGCUGUAGG; MIWI and MILI are mouse PIWI proteins and EfPiwi is from a freshwater sponge; tags in brackets are library labels; higher = faster piRNA-guided slicing of the target
# Outline: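 Sequencing of uncleaved targets, normalised to depth and to weakly complementary targets, was the readout of this Cleave-'n-Seq assay. A transcribed, DNA-blocked target RNA library (0.1 nM) was mixed with 1 nM active affinity-purified piRISC carrying one synthetic guide, with or without 500 nM GTSF1 partner protein, in HEPES–potassium acetate buffer at 33 °C for 0–8 or 0–960 min. Three trials were pooled, k3 was capped at 0.0001 min^-1, and a burst-and-steady-state fit gave the pre-steady-state cleavage rate.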
# [1] = auxiliary factor: 500 nM Ephydatia muelleri Gtsf1
# [2] = auxiliary factor: none (no Gtsf1)
Sequence,pre-steady-state target cleavage rate [1],pre-steady-state target cleavage rate [2]
UCCUGGUACAGCUUGCAUCGUAUUUAGUUA,0.00642 ± 0.0025,0.00122 ± 0.0094
UCCUGGAACAGCUUGCUUAGUUUUUAGUUA,0.00252 ± 0.0038,0.000804 ± 0.012
UCCUGGAUGAGCUUGGAUAGUAUAUAGUUA,0.000315 ± 0.029,0.000131 ± 0.07
UCCUGGAUGUGCUUGCAAAGUAUUUACUUA,0.00111 ± 0.005,0.00115 ± 0.0079
UCCUGGAUGAGCUAGCUUAGUAUUUAGUUA,0.00129 ± 0.003,0.0008 ± 0.0083
UCCUGGAAGAGCUUGGAUAGUAUUUAGUUA,0.00392 ± 0.0027,0.00136 ± 0.0079
UCCUGCUACAGCAUGCAUUGUAUUUAGUUA,0.0119 ± 0.0032,0.000981 ± 0.0075
UCCUGGAUGUCCUUGCAUAGUAUCUUAGUUA,0.00294 ± 0.0039,0.000887 ± 0.0094
UCCUGGAACAGCUACCAUAGUAUUUACAAA,0.000389 ± 0.014,0.000117 ± 0.043
UCCUGGAUCAGCAUGCAUAGUUUUUAGUUA,0.00291 ± 0.0027,0.000347 ± 0.02
UCCUGGAUGAGCUUGCAUAGUAUUUAGAUA,0.00326 ± 0.0019,0.00141 ± 0.0058
UCCUCCUACAGCUUGCAUUGAAUUUAGUUA,0.00141 ± 0.0053,0.000156 ± 0.021
UCCUGGUACAGCUUGCAAAGUAAUUAGUUA,0.00305 ± 0.0021,0.000961 ± 0.0085
UCCUGCUACAGGUUGCAUAGUAAUUAGUUA,0.00595 ± 0.0019,0.00123 ± 0.0086
UCCUGGAUGUGCUUGCAUACUAUUUAGAUA,0.00202 ± 0.0015,0.000444 ± 0.015
UCCUGGAUGAGCUUGCAUAGUAUUAUAGUUA,0.0159 ± 0.0056,0.0249 ± 0.011
UCCUGGUAGAGCAUGCAUAGUAUUUAGUUA,0.0134 ± 0.004,0.000814 ± 0.013
UCCUGGAUCACCUUGCAAAGUAUUUAGUUA,0.00506 ± 0.0019,0.000438 ± 0.019
UCCUGGAACAGCUUGCAUAGUAUUUACGUUA,0.00579 ± 0.0024,0.00152 ± 0.0093
UCCUGGUAGAGCUUGGAUAGUAUUUAGUUA,0.004 ± 0.0023,0.000232 ± 0.043

# Pulled one by one from the entries so far, 2 records:
Sequence,pre-steady-state target cleavage rate [1],pre-steady-state target cleavage rate [2]
UCCUGGAAGAGCUUGGAUAGUAUUUAGUUA,0.00392 ± 0.0027,0.00136 ± 0.0079
UCCUGGUAGAGCAUGCAUAGUAUUUAGUUA,0.0134 ± 0.004,0.000814 ± 0.013
